The record followed here is publication doi:10.1101/2020.01.27.921122.

By UniProt entry, the sequences of proteins in these tests, tags left out.
UniProt P55211: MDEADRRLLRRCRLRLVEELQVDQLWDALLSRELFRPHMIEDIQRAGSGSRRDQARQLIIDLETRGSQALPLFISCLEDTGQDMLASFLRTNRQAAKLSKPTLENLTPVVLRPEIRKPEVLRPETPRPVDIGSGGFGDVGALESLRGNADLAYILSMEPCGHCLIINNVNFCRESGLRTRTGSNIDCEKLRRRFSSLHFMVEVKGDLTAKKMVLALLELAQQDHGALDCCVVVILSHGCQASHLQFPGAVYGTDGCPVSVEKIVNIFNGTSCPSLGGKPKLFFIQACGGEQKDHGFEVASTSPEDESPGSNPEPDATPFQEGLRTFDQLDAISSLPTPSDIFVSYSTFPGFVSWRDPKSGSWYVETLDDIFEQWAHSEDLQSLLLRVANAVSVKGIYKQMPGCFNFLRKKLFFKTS
UniProt O14727: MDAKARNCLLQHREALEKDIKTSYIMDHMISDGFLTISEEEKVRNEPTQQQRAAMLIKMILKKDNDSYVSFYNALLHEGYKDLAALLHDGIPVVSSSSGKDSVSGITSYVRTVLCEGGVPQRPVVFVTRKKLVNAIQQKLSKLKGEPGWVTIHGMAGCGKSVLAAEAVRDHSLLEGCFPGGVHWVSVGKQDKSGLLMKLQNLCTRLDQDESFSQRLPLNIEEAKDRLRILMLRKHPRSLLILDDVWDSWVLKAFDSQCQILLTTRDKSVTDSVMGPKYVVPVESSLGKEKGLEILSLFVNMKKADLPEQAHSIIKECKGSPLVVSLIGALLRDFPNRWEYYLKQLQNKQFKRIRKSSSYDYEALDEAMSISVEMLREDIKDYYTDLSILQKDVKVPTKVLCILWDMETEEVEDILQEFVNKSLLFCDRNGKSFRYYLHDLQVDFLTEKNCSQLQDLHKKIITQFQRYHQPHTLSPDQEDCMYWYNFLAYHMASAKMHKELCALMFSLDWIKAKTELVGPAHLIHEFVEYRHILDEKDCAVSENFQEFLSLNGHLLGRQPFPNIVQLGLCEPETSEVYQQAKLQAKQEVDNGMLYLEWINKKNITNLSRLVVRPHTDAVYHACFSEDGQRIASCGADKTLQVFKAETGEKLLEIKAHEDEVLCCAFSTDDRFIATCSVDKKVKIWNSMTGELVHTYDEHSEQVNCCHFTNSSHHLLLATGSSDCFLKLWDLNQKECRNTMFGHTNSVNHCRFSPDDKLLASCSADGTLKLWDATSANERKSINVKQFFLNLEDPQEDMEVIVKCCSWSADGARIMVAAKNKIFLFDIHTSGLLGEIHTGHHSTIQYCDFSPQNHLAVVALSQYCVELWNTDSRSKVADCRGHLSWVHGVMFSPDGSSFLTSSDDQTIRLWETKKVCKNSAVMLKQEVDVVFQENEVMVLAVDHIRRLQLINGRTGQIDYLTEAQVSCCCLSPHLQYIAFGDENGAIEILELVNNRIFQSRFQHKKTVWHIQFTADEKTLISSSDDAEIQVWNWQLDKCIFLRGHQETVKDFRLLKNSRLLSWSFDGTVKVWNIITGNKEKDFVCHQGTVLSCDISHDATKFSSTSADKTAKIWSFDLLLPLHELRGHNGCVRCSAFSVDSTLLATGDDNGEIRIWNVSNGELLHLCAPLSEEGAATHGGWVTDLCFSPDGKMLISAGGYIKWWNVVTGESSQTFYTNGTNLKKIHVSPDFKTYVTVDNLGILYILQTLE
UniProt O88879: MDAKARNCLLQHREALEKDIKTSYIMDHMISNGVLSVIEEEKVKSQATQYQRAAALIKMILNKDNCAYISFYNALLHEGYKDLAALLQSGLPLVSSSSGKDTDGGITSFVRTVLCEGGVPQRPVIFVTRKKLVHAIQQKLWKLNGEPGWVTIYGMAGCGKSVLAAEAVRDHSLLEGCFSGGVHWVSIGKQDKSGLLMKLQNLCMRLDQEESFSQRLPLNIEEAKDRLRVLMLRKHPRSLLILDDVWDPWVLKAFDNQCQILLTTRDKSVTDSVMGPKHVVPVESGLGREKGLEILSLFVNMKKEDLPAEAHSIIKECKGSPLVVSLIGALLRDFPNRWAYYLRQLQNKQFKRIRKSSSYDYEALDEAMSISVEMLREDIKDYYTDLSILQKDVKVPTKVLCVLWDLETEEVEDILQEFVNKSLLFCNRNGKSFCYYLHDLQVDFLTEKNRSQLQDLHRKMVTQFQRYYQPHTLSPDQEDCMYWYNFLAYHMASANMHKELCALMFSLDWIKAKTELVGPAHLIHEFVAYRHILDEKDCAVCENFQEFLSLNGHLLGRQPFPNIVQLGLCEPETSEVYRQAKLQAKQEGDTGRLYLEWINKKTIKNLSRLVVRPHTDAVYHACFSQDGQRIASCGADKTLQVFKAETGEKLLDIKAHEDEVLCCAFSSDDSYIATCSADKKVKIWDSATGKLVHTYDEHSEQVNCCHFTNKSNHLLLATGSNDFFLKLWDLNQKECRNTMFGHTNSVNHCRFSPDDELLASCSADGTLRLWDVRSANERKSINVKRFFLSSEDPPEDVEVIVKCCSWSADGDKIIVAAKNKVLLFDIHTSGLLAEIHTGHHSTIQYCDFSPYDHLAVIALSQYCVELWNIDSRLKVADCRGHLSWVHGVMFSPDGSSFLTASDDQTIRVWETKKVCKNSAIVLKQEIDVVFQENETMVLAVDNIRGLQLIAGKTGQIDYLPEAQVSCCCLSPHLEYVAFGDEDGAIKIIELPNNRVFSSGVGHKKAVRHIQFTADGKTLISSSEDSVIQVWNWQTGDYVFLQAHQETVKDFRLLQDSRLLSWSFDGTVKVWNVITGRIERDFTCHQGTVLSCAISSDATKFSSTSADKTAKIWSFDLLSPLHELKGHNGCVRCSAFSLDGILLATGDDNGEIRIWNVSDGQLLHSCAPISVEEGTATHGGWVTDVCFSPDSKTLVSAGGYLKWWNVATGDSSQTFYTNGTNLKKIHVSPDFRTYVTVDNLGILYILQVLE

Read-outs that look alike come from different tables or passages of the source. Results are given in words; binding and its absence hold for the method and conditions named. Binding seen in cells or lysates may run through a third protein. Some binding calls cover weakened binding; strength is not graded here. For some of these results: Where a sequence is shown, tags or fusion partners need not be part of it.

The target in assay [1] is T1, pro-caspase-4-His (human) (UniProt P49662).
T1 sequence: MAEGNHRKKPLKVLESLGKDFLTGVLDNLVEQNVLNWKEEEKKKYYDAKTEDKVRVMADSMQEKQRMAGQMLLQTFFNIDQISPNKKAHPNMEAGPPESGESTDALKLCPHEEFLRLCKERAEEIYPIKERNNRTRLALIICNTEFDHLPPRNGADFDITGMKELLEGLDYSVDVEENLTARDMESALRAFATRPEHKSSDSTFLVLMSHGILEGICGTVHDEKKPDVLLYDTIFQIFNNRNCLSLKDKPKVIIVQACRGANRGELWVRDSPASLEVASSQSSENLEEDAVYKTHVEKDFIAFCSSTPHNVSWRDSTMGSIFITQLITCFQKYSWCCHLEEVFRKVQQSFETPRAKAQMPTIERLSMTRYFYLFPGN
Description: pull-down.

Assay [2] addresses T2, pro-caspase-11 (mouse (endogenous in BMDMs and liver)) (UniProt P70343).
T2 sequence: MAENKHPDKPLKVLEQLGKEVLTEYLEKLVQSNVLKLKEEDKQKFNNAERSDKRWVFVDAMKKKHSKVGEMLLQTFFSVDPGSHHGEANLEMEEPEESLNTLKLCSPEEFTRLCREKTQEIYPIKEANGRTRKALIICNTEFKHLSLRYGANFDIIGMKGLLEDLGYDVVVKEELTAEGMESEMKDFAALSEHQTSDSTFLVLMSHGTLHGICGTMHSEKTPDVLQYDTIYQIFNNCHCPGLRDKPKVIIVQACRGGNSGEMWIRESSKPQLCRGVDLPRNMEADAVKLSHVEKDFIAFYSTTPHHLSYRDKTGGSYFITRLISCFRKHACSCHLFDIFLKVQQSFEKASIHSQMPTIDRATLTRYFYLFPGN
Description: co-IP.

In assay [3] the target is T2, pro-caspase-11 (mouse (endogenous in BMDMs and liver)). Description: co-IP. The source holds these as a separate data set.

Turning to “endogenous pro-caspase-9 (from UniProt P55211 1-416)”, the binding entry in assay [1] is “no binding”.

“endogenous Apaf-1 (from UniProt O14727 1-1248)”: in assay [1], the binding entry is “binds”.

For the substance Apaf-1 (from UniProt O88879 1-1249), the binding result in assay [2] and in assay [3] was “binds” throughout.
